# Results of single-concentration screens

A: 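Whole-cell growth test on Mycobacterium tuberculosis, read after 4 days in a medium based on cholesterol and the lipid DPPC; the read-out is not stated. Concentration: 50 µM. Higher reads as more growth inhibition (inferred: compounds with an IC50 in retests scored well above the rest). About 69,000 compounds were tested under these conditions; 0.54% (about 370) showed 50% or more at least once.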
B: 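Growth of Mycobacterium tuberculosis over 3 days (7H9 medium with glucose and tyloxapol); the read-out is not stated. Tested at 50 µM. Direction is inferred from retests: higher values go with more growth inhibition. Of about 69,000 compounds tested this way, about 760 (1.1%) reached 50% or more in at least one test.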

Each number is a percent effect as filed. How 0% and 100% were set is not recorded. Most values in the screen are low, and negative values occur. The compounds are a random part of those screened. Two or more numbers in one place are separate tests of the same structure; such repeats can differ widely.

SMILES	A	B
CN(C)Cc1cncc2c1CCN(Cc1ccoc1)C2.Cl.Cl.Cl	9.95%	13.3%
CCc1nc(CN(C)CC(c2cccs2)N2CCOCC2)no1 (centres unmarked)	-33.42%	-2.663%
CC1CCCN1Cc1cccc(C(=O)Nc2ccc3c(c2)CCC3=O)c1 (centres unmarked)	-3.046%	-6.031%
O=S(=O)(c1cccc(Cl)c1)N1CCCC(Cn2cncn2)C1 (centres unmarked)	-6.655%	-0.3341%
[H][C@@]12COC[C@]1(CNS(C)(=O)=O)CN(C(=O)C1CCSCC1)C2	9.331%	6.867%
N#Cc1ccc(N2CCN(c3nccs3)CC2)nc1	8.826%	7.136% and 29.78%
O=C(c1cccc(S(=O)(=O)NC[C@@H]2C[C@H](F)CN2)c1)N1CCCCC1	6.157%	5.619% and 5.818%
CCOCC(=O)NCc1cc(C2CC2)n(C2CCCC2)n1	17.25%	0.929% and 20.69%
Cc1nonc1CNC(=O)C(C)Oc1cccc(F)c1 (centres unmarked)	8.736% and -5.759%	-2.1%
c1cc(CN2CCC3(CC2)COC(COCC2CC2)C3)cs1 (centres unmarked)	10.84%	6.759%
O=C(c1ccncc1)N1CCc2[nH]nc(Nc3ccccc3)c2C1	-11.88% and -0.2713%	4.809%
c1ccc2c(c1)CC(n1ccnc1-c1cc3n(n1)CCCNC3)CO2 (centres unmarked)	-1.263%	-39.01% and 2.674%
OCC1(NCc2cnc(-c3ccccn3)s2)CCOCC1	-28.19%	-24.37%
CC(C)CCn1ccc(NC(=O)N2CCCC2CN2CCOCC2)n1 (centres unmarked)	17.55%	1.816%
O=C(NCCNCC1CNc2ccnn2C1)c1ccc(F)cc1 (centres unmarked)	3.296%	27.9%
CC(NC(=O)CCOc1cccc(F)c1)c1nnc2n1CCC2 (centres unmarked)	-7.161%	-9.414%
O=C(Cn1ccc2c(Cl)cccc21)Nc1nc[nH]n1	3.588%	18.64%
Cc1nc(-c2nnc[nH]2)sc1C(=O)N1CCCC1c1ccsc1 (centres unmarked)	-5.285%	-5.322%
CCc1nn(C)c(Cl)c1CN1C[C@@H](NC(=O)N(C)C)[C@H](C(C)C)C1	-8.368%	-50.32%
O=C1CN(C(=O)c2cccc(OCc3cscn3)c2)CCN1	10.92%	10.44%
Cn1cnc2c1CCN(Cc1csc(-c3ccc(F)cc3)n1)C2	-14.47%	17.01%
COc1cccc(OCCc2nc3c(cc2C(N)=O)CCC3)c1	-6.407%	25.91% and -4.322%
COCCC(=O)N1CCCC2(CCC(=O)N(CCc3c[nH]cn3)C2)C1 (centres unmarked)	0.799%	-4.716% and 0.1872%
CC(C)N(CCO)C(=O)c1cc(COc2ccc3c(c2)CCCC3)on1	8.306%	30.62%
CN(CCCc1cc(-c2ccccc2)no1)S(C)(=O)=O	-6.903%	-18.87%
O=C(O)C(F)(F)F.O=C(O)C(F)(F)F.c1ccc(OC2COC3(CCN(CC4CC4)CC3)C2)nc1 (centres unmarked)	-24.07% and -22.82%	-25.39%
CS(=O)(=O)NC1CCN(C(=O)NCc2cccnc2)CC1	-15.65%	6.088%
CS(=O)(=O)CCC(=O)Nc1ccsc1	-3.805%	-10.33% and 3.074%
CNc1cc(CNC(=O)c2ccccn2)nc(-c2ccncc2)n1	-5.638%	13.78%
Cc1cc(NCc2nnc3n2CCCCC3)n2nc(C)c(C)c2n1	3.512%	21.46%
O=C(Cn1ccc2sccc2c1=O)NCCCc1ccccc1	2.936%	9.669%
O=C(Cn1cc(C(=O)O)ccc1=O)NCc1ccc(F)cc1Cl	-16.52% and -11.88%	-21.72%
Cc1nc(N2CCCC2)nc2c1CCN(C(=O)c1ccoc1C)CC2	-14.43%	-15.64%
Cc1ccc(NC(=O)C2CSCN2C(=O)c2cnccn2)cc1C (centres unmarked)	6.573%	26.32%
Cc1ccccc1OCCN(C)Cc1noc(CC(C)C)n1	36.86%	50.71%
O=C(O)C(F)(F)F.O=C(O)C(F)(F)F.[H][C@@]12COC[C@]1(COCC1CC1)CN(Cc1ccncc1)C2	-19.73%	-7.975%
CC1CCN(CCNC(=O)c2scnc2Cl)CC1	-22.19%	4.448%
Cc1c(C(=O)NCCC(=O)N2CCOCC2)oc2c(C)cccc12	-20.75%	-6.94%
Cc1ccc(-c2nn(C)c(C(=O)O)c2Br)cc1	-1.666%	3.734%
Cc1ccc2nc(C)c(C)c(C(=O)NCCCn3ccnn3)c2c1	0.4891%	18.18%
O=C(CCNc1ncccn1)N1CCN(c2nccs2)CC1	-24.42%	-18.77%
Cc1cn2c(n1)CCC(NC(=O)c1nc(C)ncc1Cl)C2 (centres unmarked)	-6.017%	13.09%
CN1C[C@]2(CC[C@@H](C(=O)N3CCOCC3)CC2)Oc2ccccc2C1=O	-0.3714% and -20.64%	-7.643%
CCc1nc(C)c(C2CC(=O)Nc3c2c(C(C)(C)C)nn3C)[nH]1 (centres unmarked)	-9.694% and -14.06%	-29.35% and -10.6%
CCNC(=O)N1CCCC(c2noc(CC)n2)C1 (centres unmarked)	15.09%	11.3%
COCC1CN(Cc2ccc(C)o2)Cc2ncn(CC3CC3)c21 (centres unmarked)	-25.44%	7.115%
CC1CCCN(S(=O)(=O)N2CCOC3(CCCC3)C2)C1 (centres unmarked)	0.7923%	9.2%
O=C1CC2(CCCC2)CC(=O)N1Cc1nccs1	0.4982%	-8.97%

Some entries from above, unchanged:

Cc1cn2c(n1)CCC(NC(=O)c1nc(C)ncc1Cl)C2 (centres unmarked) read A: -6.017%; B: 13.09%.
Cc1ccccc1OCCN(C)Cc1noc(CC(C)C)n1 read A: 36.86%; B: 50.71%.
CN(C)Cc1cncc2c1CCN(Cc1ccoc1)C2.Cl.Cl.Cl read A: 9.95%; B: 13.3%.
O=C1CC2(CCCC2)CC(=O)N1Cc1nccs1 read A: 0.4982%; B: -8.97%.

Source: ChEMBL document CHEMBL3988442, “University of Dundee, Small-Polar-MMV Screening Library” (2021).